Here are results for one molecule from publication PMC5115829, “Digitor/dASCIZ Has Multiple Roles in Drosophila Development” (PLoS ONE, 2016).

No constants are given. Whether binding was seen depends on the method and setting. Where a sequence is shown, tags or fusion partners need not be part of it.

In this assay the target is T1, His-tagged JIL-1 kinase control fusion protein (amino-terminal fragment, first 260 amino acid residues) (UniProt Q9V3I5).
T1 sequence: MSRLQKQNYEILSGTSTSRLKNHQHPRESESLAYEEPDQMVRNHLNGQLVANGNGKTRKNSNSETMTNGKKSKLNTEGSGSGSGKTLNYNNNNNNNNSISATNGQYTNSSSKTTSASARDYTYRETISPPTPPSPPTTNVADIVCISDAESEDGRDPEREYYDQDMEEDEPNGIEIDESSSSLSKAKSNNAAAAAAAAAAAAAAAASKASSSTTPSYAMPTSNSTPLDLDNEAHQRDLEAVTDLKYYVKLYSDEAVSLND
In words: pull-down; about 10 ug His-Skeletor or His-JIL-1 coupled to Ni-NTA beads, incubated with 10 ug GST-Digitor in 1X PBS pH 7.4, 4 hr, 4°C; 5 washes; immunoblot with anti-GST mAb 8C7; both purified. For orientation: A western blot detects proteins with antibodies after separation by electrophoresis.

B1: Digitor-GST fusion protein without the four zinc-finger motifs (amino acid residues 144 to 376) (domain or fragment, UniProt Q9VZU1 144-376)
chain: LVHHESDKVPIPSLATWKRLNPQPIPVSADSLTAHSLKTGSDLHPSEEYINNLPSNLAGVTELYAEIPNPEANMPSTLELDTNLPAAEEHILCFLPIMDVSYALEMSSQKLDMETQTEEDDLNEIRNEVLAPLLRDIETQTPDTRGDIGTMTDDFPEEQEPVAVGSHFHAYSETEPMFDLQTSAHMYTQTCDDLFEELGLSHIQTQTHWPDGLYNTQHTQTCDEIMDELFPDN
For B1, the binding entry is on record as “no binding (tested: 10 μg of GST-Digitor)”.
